The supplement of paper PMC10849652
The other results are listed elsewhere or left out.

Protein sequences, listed by entry. Tags and fused reporters are not part of them. Lines headed by an entry give the natural chain unless they say otherwise; changes in a name come on top.
UniProt Q8NCC3: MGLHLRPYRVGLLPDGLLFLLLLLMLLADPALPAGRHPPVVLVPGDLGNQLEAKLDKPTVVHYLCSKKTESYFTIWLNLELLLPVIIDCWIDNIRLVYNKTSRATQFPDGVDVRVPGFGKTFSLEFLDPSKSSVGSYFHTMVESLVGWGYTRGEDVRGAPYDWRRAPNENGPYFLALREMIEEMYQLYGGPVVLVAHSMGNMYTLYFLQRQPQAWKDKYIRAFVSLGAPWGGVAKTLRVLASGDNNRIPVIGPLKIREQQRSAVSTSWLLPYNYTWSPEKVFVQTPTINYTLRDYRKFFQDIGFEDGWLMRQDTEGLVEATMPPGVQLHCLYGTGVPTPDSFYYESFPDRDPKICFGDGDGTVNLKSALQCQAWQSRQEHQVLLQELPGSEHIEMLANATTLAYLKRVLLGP
UniProt P51178: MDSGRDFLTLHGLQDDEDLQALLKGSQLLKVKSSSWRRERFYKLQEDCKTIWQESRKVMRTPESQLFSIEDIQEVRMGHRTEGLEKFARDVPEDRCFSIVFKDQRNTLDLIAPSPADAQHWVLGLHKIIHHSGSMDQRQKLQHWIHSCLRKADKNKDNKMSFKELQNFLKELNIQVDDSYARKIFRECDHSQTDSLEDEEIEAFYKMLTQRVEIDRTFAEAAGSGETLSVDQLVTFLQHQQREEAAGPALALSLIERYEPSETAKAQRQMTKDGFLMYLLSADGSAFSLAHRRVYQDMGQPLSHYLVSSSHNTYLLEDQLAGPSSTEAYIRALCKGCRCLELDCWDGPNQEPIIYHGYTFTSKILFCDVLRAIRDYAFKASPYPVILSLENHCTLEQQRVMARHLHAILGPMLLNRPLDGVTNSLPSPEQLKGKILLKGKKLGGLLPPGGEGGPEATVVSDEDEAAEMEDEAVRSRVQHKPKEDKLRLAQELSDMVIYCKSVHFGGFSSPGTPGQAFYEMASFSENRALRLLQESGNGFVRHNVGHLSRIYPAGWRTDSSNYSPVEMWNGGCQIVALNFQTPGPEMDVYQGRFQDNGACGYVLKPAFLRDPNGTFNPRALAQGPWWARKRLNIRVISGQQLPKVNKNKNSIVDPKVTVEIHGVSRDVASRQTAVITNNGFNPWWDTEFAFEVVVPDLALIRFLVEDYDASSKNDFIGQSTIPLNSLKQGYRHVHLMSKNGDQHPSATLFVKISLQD
UniProt Q8IWS0: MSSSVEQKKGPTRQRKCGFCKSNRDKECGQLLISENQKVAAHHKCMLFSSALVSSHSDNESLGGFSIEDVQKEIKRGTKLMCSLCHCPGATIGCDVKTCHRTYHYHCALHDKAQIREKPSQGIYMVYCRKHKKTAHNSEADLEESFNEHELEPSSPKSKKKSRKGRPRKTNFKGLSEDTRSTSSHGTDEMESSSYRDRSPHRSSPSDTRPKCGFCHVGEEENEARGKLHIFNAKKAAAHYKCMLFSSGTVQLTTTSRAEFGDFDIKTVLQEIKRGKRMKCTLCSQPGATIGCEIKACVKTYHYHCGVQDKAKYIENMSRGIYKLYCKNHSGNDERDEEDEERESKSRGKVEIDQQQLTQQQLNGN
UniProt O95394: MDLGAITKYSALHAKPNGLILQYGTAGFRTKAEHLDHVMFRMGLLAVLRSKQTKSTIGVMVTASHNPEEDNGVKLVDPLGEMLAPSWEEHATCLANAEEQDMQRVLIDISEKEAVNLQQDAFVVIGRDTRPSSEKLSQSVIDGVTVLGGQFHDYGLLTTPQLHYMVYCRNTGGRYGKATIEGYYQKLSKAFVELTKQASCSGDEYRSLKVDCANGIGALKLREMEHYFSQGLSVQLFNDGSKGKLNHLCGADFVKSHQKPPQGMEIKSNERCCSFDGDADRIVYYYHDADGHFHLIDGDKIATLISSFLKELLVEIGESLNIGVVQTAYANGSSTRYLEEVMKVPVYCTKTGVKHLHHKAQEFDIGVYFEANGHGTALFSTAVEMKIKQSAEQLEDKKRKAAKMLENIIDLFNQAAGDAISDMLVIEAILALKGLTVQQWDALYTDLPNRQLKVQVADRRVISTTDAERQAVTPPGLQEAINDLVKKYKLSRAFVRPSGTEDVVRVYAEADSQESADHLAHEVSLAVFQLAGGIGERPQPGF
UniProt Q6PCE3: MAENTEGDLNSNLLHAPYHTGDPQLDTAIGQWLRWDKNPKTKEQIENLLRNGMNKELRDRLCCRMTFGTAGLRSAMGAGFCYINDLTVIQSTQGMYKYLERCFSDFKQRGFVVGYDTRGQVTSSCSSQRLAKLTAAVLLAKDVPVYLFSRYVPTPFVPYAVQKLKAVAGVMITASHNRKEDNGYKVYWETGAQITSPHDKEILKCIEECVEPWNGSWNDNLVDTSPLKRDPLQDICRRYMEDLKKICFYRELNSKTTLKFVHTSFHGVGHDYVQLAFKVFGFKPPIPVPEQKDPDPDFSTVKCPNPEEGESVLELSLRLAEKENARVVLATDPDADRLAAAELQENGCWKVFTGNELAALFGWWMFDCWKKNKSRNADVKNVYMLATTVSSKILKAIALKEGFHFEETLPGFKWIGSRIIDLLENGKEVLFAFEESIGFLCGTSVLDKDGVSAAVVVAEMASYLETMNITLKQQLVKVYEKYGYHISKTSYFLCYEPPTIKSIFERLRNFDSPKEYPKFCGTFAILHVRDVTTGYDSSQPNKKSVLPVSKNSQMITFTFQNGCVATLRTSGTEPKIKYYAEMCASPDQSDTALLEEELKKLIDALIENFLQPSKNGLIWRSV
UniProt Q01970, whole entry, looked up: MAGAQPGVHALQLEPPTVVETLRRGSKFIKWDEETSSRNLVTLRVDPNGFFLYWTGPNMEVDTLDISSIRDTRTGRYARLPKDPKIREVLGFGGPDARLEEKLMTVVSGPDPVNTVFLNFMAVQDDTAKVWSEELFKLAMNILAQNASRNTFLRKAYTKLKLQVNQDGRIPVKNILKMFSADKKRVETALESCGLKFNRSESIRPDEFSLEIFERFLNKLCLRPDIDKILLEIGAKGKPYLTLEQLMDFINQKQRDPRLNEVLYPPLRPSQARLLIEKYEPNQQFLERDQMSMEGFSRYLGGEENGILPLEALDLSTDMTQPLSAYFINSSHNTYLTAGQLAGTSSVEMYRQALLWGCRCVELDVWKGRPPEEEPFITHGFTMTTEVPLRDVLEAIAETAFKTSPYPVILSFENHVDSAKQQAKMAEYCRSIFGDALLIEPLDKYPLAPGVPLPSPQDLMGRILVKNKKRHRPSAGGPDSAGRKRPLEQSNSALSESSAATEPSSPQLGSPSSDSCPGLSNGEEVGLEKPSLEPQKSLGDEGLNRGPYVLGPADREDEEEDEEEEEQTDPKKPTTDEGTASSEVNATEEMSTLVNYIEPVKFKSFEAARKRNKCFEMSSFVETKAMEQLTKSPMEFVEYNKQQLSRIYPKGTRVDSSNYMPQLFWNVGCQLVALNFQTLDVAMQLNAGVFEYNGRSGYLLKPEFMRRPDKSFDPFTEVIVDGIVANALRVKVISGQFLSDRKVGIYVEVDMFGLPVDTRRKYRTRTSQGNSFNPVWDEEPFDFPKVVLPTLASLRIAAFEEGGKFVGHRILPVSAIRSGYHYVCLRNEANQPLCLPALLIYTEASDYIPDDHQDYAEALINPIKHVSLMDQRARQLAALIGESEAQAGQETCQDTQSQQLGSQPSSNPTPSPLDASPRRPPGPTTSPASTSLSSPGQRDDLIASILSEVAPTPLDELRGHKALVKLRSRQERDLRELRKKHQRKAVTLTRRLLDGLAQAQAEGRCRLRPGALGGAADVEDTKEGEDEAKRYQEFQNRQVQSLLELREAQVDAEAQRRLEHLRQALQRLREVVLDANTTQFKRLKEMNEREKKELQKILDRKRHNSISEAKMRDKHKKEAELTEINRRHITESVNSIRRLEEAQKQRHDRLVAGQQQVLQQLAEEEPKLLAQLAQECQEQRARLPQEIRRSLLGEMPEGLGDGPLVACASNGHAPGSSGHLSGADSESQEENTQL
UniProt Q92643: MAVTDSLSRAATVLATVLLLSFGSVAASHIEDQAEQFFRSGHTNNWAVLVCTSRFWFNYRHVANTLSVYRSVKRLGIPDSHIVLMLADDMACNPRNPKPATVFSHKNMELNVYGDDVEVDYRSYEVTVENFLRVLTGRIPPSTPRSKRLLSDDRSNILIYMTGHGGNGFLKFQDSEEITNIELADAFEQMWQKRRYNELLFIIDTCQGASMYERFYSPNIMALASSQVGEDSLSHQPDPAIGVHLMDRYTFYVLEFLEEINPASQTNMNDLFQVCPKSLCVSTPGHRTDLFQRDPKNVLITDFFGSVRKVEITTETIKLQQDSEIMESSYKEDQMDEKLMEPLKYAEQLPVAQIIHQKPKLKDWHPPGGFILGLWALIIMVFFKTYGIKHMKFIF

Assays:
Assay in all cases: log2 fold change, soluble protein after heating vs DMSO (PISA); higher = thermal stabilisation; K562 lysate, 10 uM; active = over 0.2 and 3.5 SD of the protein, either way, in both replicates (recomputed)
alvocidib = compound: CN1CC[C@H](c2c(O)cc(O)c3c(=O)cc(-c4ccccc4Cl)oc23)[C@H](O)C1 [alvocidib]
Outline: (§1)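 A 30 min treatment with 10 μM compound was applied to crude K562 extract at 1 mg/mL protein in PBS pH 7.4 with 1 mM MgCl2. Heating for 3 min spanned 48°C-58°C, after which aliquots were pooled, adjusted to 0.5% NP-40 at 4°C and spun at 21,000xg for 90 min. TMTpro 16plex LC-MS/MS of the supernatant, with channel sums equalised, gave values recorded as log-two fold change in thermal stability against solvent controls, from duplicates.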

Tubastatin A = compound: CN1CCc2c(c3ccccc3n2Cc2ccc(C(=O)NO)cc2)C1 [Tubastatin A]
Outline: as §1

[1] = compound: CNC(=O)C1=CC=CC=C1NC2=NC(=NC=C2Cl)NC3=C(C=C(C=C3)N4CCOCC4)OC
Outline: as §1

defactinib = compound: CNC(=O)c1ccc(Nc2ncc(C(F)(F)F)c(NCc3nccnc3N(C)S(C)(=O)=O)n2)cc1 [defactinib]
Outline: as §1

[2] = compound: CNc1nc(-c2ccc3c(N)n[nH]c3c2)cc(N2C[C@@H](C(=O)NC3CCCCC3)CC[C@H]2C)n1
Outline: as §1

encorafenib = compound: COC(=O)N[C@@H](C)CNc1nccc(-c2cn(C(C)C)nc2-c2cc(Cl)cc(NS(C)(=O)=O)c2F)n1 [encorafenib]
Outline: as §1

[3] = compound: COC(=O)[C@H](CCSC)NC(=O)C1=C(C=C(C=C1)NC[C@H](CS)N)C2=CC=CC=C2
Outline: as §1

alisertib = compound: COc1cc(Nc2ncc3c(n2)-c2ccc(Cl)cc2C(c2c(F)cccc2OC)=NC3)ccc1C(=O)O [alisertib]
Outline: as §1

[4] = compound: COc1cc2nc(-c3cc(F)ccc3O)nc(N[C@@H]3CNC[C@H]3C(C)(C)O)c2cc1OC
Outline: as §1

gefitinib = compound: COc1cc2ncnc(Nc3ccc(F)c(Cl)c3)c2cc1OCCCN1CCOCC1 [gefitinib]
Outline: as §1

lapatinib = compound: CS(=O)(=O)CCNCc1ccc(-c2ccc3ncnc(Nc4ccc(OCc5cccc(F)c5)c(Cl)c4)c3c2)o1 [lapatinib]
Outline: as §1

pictilisib = compound: CS(=O)(=O)N1CCN(Cc2cc3nc(-c4cccc5[nH]ncc45)nc(N4CCOCC4)c3s2)CC1 [pictilisib]
Outline: as §1

crizotinib = compound: C[C@@H](Oc1cc(-c2cnn(C3CCNCC3)c2)cnc1N)c1c(Cl)ccc(F)c1Cl [crizotinib]
Outline: as §1

[5] = compound: C[C@H](C1=CC=C(C=C1)C(=O)NC2=C3C=CNC3=NC=C2)N
Outline: as §1

duvelisib = compound: C[C@H](Nc1ncnc2nc[nH]c12)c1cc2cccc(Cl)c2c(=O)n1-c1ccccc1 [duvelisib]
Outline: as §1

gandotinib = compound: Cc1cc(Nc2cc(CN3CCOCC3)c3nc(C)c(Cc4ccc(Cl)cc4F)n3n2)n[nH]1 [gandotinib]
Outline: as §1

tozasertib = compound: Cc1cc(Nc2cc(N3CCN(C)CC3)nc(Sc3ccc(NC(=O)C4CC4)cc3)n2)n[nH]1 [tozasertib]
Outline: as §1

doramapimod = compound: Cc1ccc(-n2nc(C(C)(C)C)cc2NC(=O)Nc2ccc(OCCN3CCOCC3)c3ccccc23)cc1 [doramapimod]
Outline: as §1

bafetinib = compound: Cc1ccc(NC(=O)c2ccc(CN3CC[C@H](N(C)C)C3)c(C(F)(F)F)c2)cc1Nc1nccc(-c2cncnc2)n1 [bafetinib]
Outline: as §1

[6] = compound: Cc1cccc(CC(=O)N2CCc3c2ccc(-c2cn(C)c4ncnc(N)c24)c3F)n1
Outline: as §1

Measured: log2 fold change

PICALM (UniProt H0YEH1)
active: [5] -0.47 | [6] 0.335
inactive: alvocidib -0.206 | Tubastatin A 0.126 | [1] 0.098 | defactinib 0.006 | [2] 0 | encorafenib -0.038 | [3] 0.098 | alisertib 0.049 | [4] -0.042 | gefitinib -0.036 | lapatinib 0.046 | pictilisib 0.016 | crizotinib -0.086 | duvelisib -0.075 | gandotinib 0.238 | tozasertib 0.152 | doramapimod 0.274 | bafetinib 0.018

PLA2G15 (UniProt Q8NCC3)
inactive: alvocidib 0.002 | Tubastatin A 0.025 | [1] 0 | defactinib 0.037 | [2] -0.029 | encorafenib 0.071 | [3] -0.026 | alisertib -0.007 | [4] 0.014 | gefitinib -0.003 | lapatinib -0.018 | pictilisib -0.018 | crizotinib -0.025 | [5] -0.047 | duvelisib 0.021 | gandotinib 0.049 | tozasertib -0.024 | doramapimod -0.063 | bafetinib -0.051 | [6] 0.048

PLCD1 isoform 2 (UniProt P51178)
inactive: alvocidib 0.007 | Tubastatin A -0.054 | [1] 0.008 | defactinib -0.024 | [2] -0.039 | encorafenib 0 | [3] 0.013 | alisertib -0.021 | [4] -0.022 | gefitinib -0.016 | lapatinib 0.023 | pictilisib -0.029 | crizotinib -0.084 | [5] -0.003 | duvelisib 0.042 | gandotinib -0.012 | tozasertib 0.054 | doramapimod 0.106 | bafetinib -0.011 | [6] -0.023

PHF6 (UniProt Q8IWS0)
inactive: alvocidib 0.02 | Tubastatin A -0.009 | [1] 0.039 | defactinib -0.038 | [2] 0 | encorafenib -0.021 | [3] 0.041 | alisertib 0.025 | [4] 0.007 | gefitinib -0.013 | lapatinib -0.007 | pictilisib -0.009 | crizotinib 0.03 | [5] 0.059 | duvelisib 0.075 | gandotinib -0.046 | tozasertib -0.041 | doramapimod 0.005 | bafetinib -0.02 | [6] -0.054

PGM3 isoform 4 (UniProt O95394)
inactive: alvocidib 0.045 | Tubastatin A -0.051 | [1] 0.001 | defactinib -0.004 | [2] -0.053 | encorafenib -0.025 | [3] 0.033 | alisertib -0.001 | [4] -0.005 | gefitinib -0.024 | lapatinib -0.011 | pictilisib 0 | crizotinib -0.011 | [5] 0.028 | duvelisib 0 | gandotinib -0.042 | tozasertib -0.003 | doramapimod 0.011 | bafetinib -0.006 | [6] -0.042

PGM2L1 (UniProt Q6PCE3)
inactive: alvocidib -0.027 | Tubastatin A 0.016 | [1] -0.046 | defactinib -0.028 | [2] -0.012 | encorafenib 0.002 | [3] 0.046 | alisertib 0.004 | [4] -0.004 | gefitinib 0.029 | lapatinib -0.018 | pictilisib 0.023 | crizotinib -0.012 | [5] -0.051 | duvelisib 0.062 | gandotinib 0.007 | tozasertib -0.058 | doramapimod 0.063 | bafetinib -0.014 | [6] 0.036

PLCB3 (UniProt Q01970)
inactive: alvocidib 0.012 | Tubastatin A 0.028 | [1] -0.006 | defactinib 0.001 | [2] 0 | encorafenib -0.008 | [3] 0.059 | alisertib -0.013 | [4] -0.001 | gefitinib 0.036 | lapatinib -0.011 | pictilisib -0.005 | crizotinib 0.014 | [5] 0.017 | duvelisib 0.011 | gandotinib -0.008 | tozasertib 0.028 | doramapimod -0.026 | bafetinib -0.019 | [6] -0.001

PIGK (UniProt Q92643)
inactive: alvocidib -0.017 | Tubastatin A 0.034 | [1] 0.025 | defactinib 0.078 | [2] -0.04 | encorafenib -0.019 | [3] 0.032 | alisertib 0.015 | [4] -0.091 | gefitinib 0.049 | lapatinib -0.095 | pictilisib -0.002 | crizotinib -0.049 | [5] -0.086 | duvelisib 0.062 | gandotinib 0.018 | tozasertib 0.038 | doramapimod -0.006 | bafetinib -0.013 | [6] 0.121
